PubChem BioAssay AID1053208, Peter MacCallum Cancer Centre | 2014

- Assay: 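Genes whose silencing cuts survival of bone tumour cells only with doxorubicin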 (primary screen)
- System: mouse osteosarcoma cells, early-passage culture from an engineered mouse model of fibroblastic bone tumour
- Reagents: siRNA pool against mouse genes, 40 nM
- Duration: about 120 h (48 h before drug, then 72 h with drug)
- Conditions: doxorubicin 100 nM for 72 h, roughly 30-40% inhibitory dose
- Measured: 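Viability read as ATP luminescence after 72 h of 100 nM doxorubicin or none, duplicate wells averaged, scaled to non-targeting siRNA, then expressed as robust z-scores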
- Scale: viability z-score with doxorubicin and doxorubicin viability vs non-targeting: higher = more viable cells under doxorubicin; viability z-score without drug: higher = more viable cells with knock-down alone; z-score of drug to no-drug ratio: higher = less drug sensitisation by knock-down
- Rule for the call: 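a pool counts as active when its viability z-score with doxorubicin is -2 or below and its z-score without drug lies between -2 and 2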
This is an unselected part of about 17,000 deposited reagents. 788 of all reagents (4.7%) count as active. 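Calls rest on z-score classes alone; an extra cut-off of viability at most 70% of control was not applied to them.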 No sequences are given here.

gene knocked down	combined z-score class	viability z-score with doxorubicin	viability z-score without drug	z-score of drug to no-drug ratio	doxorubicin viability vs non-targeting	Call
Prkaa2 (GeneID 108079)	no change with or without drug	0	-0.84	0.67	0.94	inactive
Aph1b (GeneID 208117)	no change with or without drug	0.22	-0.84	1.01	0.96	inactive
Dbpht2 (GeneID 386753)	no change with or without drug	0.34	0.84	-0.11	0.97	inactive
Tnnc1 (GeneID 21924)	no change with or without drug	-1.57	-0.84	-1.01	0.8	inactive
Ctns (GeneID 83429)	no change with or without drug	0.56	-0.51	1.12	0.99	inactive
Bcas1 (GeneID 76960)	no change with or without drug	0.45	0	0.56	0.98	inactive
Rhbdl3 (GeneID 246104)	no change with or without drug	1.35	-0.17	1.69	1.06	inactive
Smurf1 (GeneID 75788)	no change with or without drug	-1.57	-0.17	-1.46	0.8	inactive
Or9i2 (GeneID 258626)	no change with or without drug	0.56	-0.51	1.12	0.99	inactive
Capza1b (GeneID 66747)	no change with or without drug	0.34	-1.85	1.91	0.97	inactive
Apc2 (GeneID 23805)	no change with or without drug	-0.67	0.84	-1.12	0.88	inactive
Adm (GeneID 11535)	no change with or without drug	1.57	1.52	0.67	1.08	inactive
Cd59b (GeneID 333883)	low cell count with and without drug	-2.02	-2.53	-0.34	0.76	inactive
Plbd2 (GeneID 71772)	no change with or without drug	1.35	1.35	0.56	1.06	inactive
Or6c69 (GeneID 258667)	no change with or without drug	0	0.17	0	0.94	inactive
Morn2 (GeneID 378462)	low cell count with and without drug	-2.14	-2.36	-0.56	0.75	inactive
Rpa3 (GeneID 68240)	low cell count with doxorubicin only	-4.38	0	-4.5	0.55	active
Nlrp9c (GeneID 330490)	no change with or without drug	1.57	1.01	1.01	1.08	inactive
Jarid2 (GeneID 16468)	no change with or without drug	-1.57	-1.52	-0.56	0.8	inactive
Trim32 (GeneID 69807)	no change with or without drug	-0.45	0.51	-0.67	0.9	inactive
Trp53inp1 (GeneID 60599)	no change with or without drug	-0.9	0.17	-0.9	0.86	inactive
Tprg1 (GeneID 71338)	no change with or without drug	-1.57	0.51	-1.8	0.8	inactive
Nutm1 (GeneID 213765)	no change with or without drug	-0.45	-1.52	0.79	0.9	inactive
Rbm4 (GeneID 19653)	no change with or without drug	0.9	1.69	-0.11	1.02	inactive
Naga (GeneID 17939)	no change with or without drug	1.12	0.34	1.01	1.04	inactive
Slc2a2 (GeneID 20526)	no change with or without drug	-0.22	0	-0.11	0.92	inactive
Ccdc142 (GeneID 243510)	no change with or without drug	0.11	-1.52	1.35	0.95	inactive
Rab11fip4 (GeneID 268451)	no change with or without drug	-0.9	-0.84	-0.22	0.86	inactive
Antkmt (GeneID 214917)	no change with or without drug	-0.45	-0.84	0.22	0.9	inactive
Stmn4 (GeneID 56471)	no change with or without drug	-0.45	-0.51	0	0.9	inactive
Myom2 (GeneID 17930)	no change with or without drug	1.8	0.34	1.69	1.1	inactive
Kmo (GeneID 98256)	no change with or without drug	-1.35	-1.69	-0.22	0.82	inactive
Rrm2b (GeneID 382985)	no change with or without drug	-0.45	0.17	-0.45	0.9	inactive
Arid5a (GeneID 214855)	no change with or without drug	0.67	1.01	0.11	1	inactive
U2af1l4 (GeneID 233073)	no change with or without drug	0.9	-1.18	2.02	1.02	inactive
Cd4 (GeneID 12504)	no change with or without drug	-0.9	-1.69	0.34	0.86	inactive
Mical3 (GeneID 194401)	no change with or without drug	0.34	-0.84	1.12	0.97	inactive
Timm22 (GeneID 56322)	low cell count with doxorubicin only	-3.04	-0.84	-2.7	0.67	active
Arhgap15 (GeneID 76117)	no change with or without drug	0.67	0.17	0.67	1	inactive
Or1f12 (GeneID 258280)	low cell count with and without drug	-2.02	-3.2	0.22	0.76	inactive
Mmaa (GeneID 109136)	no change with or without drug	-0.67	1.18	-1.35	0.88	inactive
Llph (GeneID 66225)	high cell count without drug only	-1.12	2.87	-2.59	0.84	inactive
Dnajc1 (GeneID 13418)	no change with or without drug	0.56	-0.17	0.79	0.99	inactive
Rpl36 (GeneID 54217)	low cell count with and without drug	-6.07	-4.89	-4.16	0.4	inactive
Slc2a5 (GeneID 56485)	no change with or without drug	0.67	1.69	-0.34	1	inactive
Ppp3cc (GeneID 19057)	no change with or without drug	1.35	-0.17	1.69	1.06	inactive
Dpy30 (GeneID 66310)	no change with or without drug	1.01	0	1.12	1.03	inactive
Ddr1 (GeneID 12305)	no change with or without drug	0	-0.51	0.45	0.94	inactive
Hdhd3 (GeneID 72748)	no change with or without drug	0.22	-0.17	0.45	0.96	inactive
Slfn4 (GeneID 20558)	no change with or without drug	-0.22	-1.85	1.35	0.92	inactive

Active calls (from the list above):
gene knocked down	combined z-score class	viability z-score with doxorubicin	viability z-score without drug	z-score of drug to no-drug ratio	doxorubicin viability vs non-targeting	Call
Rpa3 (GeneID 68240)	low cell count with doxorubicin only	-4.38	0	-4.5	0.55	active
Timm22 (GeneID 56322)	low cell count with doxorubicin only	-3.04	-0.84	-2.7	0.67	active
